Measurements as given in the supplement of paper PMC12889115.
The list shows a part of the results. These are raw signals, not scaled to a control.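 First-pass screen: polymyxin B was added at a level that permeabilizes the Salmonella outer membrane while sparing the inner membrane. DMSO wells, with and without polymyxin B, defined maximum growth. Because plates differed from one another, each plate's data were ranked separately and the compounds with the lowest OD600 were carried forward as hits.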

System: Salmonella enterica serovar Typhimurium SL1344
Experiment: bacterial growth OD600 after 18 h with compound and polymyxin B; higher = more bacterial growth (less inhibition)
Settings: 50 µM, Mueller-Hinton broth

| Compound | bacterial growth OD600 (polymyxin B 0.75 µg/mL) | bacterial growth OD600 (polymyxin B 1 µg/mL) |
| --- | --- | --- |
| O=C(NCc1cccnc1)c1ccc(N2CCC(NCc3cccc(C(F)(F)F)c3)CC2)cc1 | 0.795 |  |
| COCCN1CC(C(=O)NCCc2nc(C)cc(C(F)(F)F)n2)CCC1=O (configuration not stated) |  | 0.838 |
| O=C(NCC1CCCN(Cc2ccccc2)C1)c1cccs1 (configuration not stated) |  | 0.886 |
| O=C(c1cccc(Cn2cccn2)c1)N1CCCC(Nc2ccc(F)cc2)C1 (configuration not stated) |  | 1.03 |
| Cc1ccc(CN2CCN(Cc3ccc(F)cc3)CC2CCO)cc1 (configuration not stated) |  | 0.755 |
| CN(CC1CCCN(CCc2ccc(Cl)cc2)C1)C(=O)c1cc(C2CC2)on1 (configuration not stated) |  | 0.857 |
| COc1cccc(CCC2CCCN(C(=O)CCSC)C2)c1 (configuration not stated) | 0.008 |  |
| COc1cccc(NC(=O)CCC2CCN(C(=O)C3=C(C)OCCO3)CC2)c1 |  | 1.23 |
| Cc1ccc(Oc2ncccc2CNCc2cccn2-c2ncccn2)cn1 |  | 1.12 |
| O=C(CCc1cccnc1)NCc1cccnc1Oc1ccc(F)cc1F |  | 0.993 |
| O=C(NCc1nc(NCCCc2ccccc2)c2ccccc2n1)c1cnc2ccccn2c1=O | 0.811 |  |
| COc1cc(-c2cccs2)cc2c1OCCN(CC(C)C)C2 | 0.89 |  |
| COC(=O)c1cccc(-c2cc(Cl)c3c(c2)CC(CNC(=O)CSc2ncccn2)O3)c1 (configuration not stated) | 0.008 |  |
| COCCNc1ccc(-c2nc(-c3ccccc3C)no2)cn1 | 0.008 |  |
| O=C(NCc1cccnc1)c1ccc(N2CCC(NCCc3ccccc3C(F)(F)F)CC2)cc1 | 0.773 |  |
| COc1cc2c(cc1CNCc1cccnc1N1CCCCCCC1)OCO2 | 0.796 |  |

| Compound | bacterial growth OD600 (polymyxin B 0.75 µg/mL) | bacterial growth OD600 (polymyxin B 1 µg/mL) |
| --- | --- | --- |
| O=C(NC1CC1)C1CCCN(C2CCN(C3Cc4ccccc4C3)CC2)C1 (configuration not stated) | 0.84 |  |
| COc1cc(CN2CCC(n3nccc3NC(=O)CC(C)C)CC2)ccc1F |  | 0.933 |
| CN(Cc1ccccc1)C1(C(=O)N2CC[C@H](O)C2)Cc2ccccc2C1 | 0.564 |  |
| O=C(c1ccc(N2CCC(NCC(c3ccccc3)c3ccccc3)CC2)cc1)N1CCCC(O)C1 (configuration not stated) | 0.778 |  |
| OCCC1CN(Cc2cc(F)cc(F)c2)CCN1Cc1ccccc1F (configuration not stated) |  | 0.837 |
| COc1ccccc1OCC(=O)N1CCc2onc(-c3ccccc3F)c2C1 | 0.533 |  |
| CCN(Cc1nccn1C)C(=O)c1ccc(N2CCCC2)nc1 |  | 0.888 |
| CCNCc1cn(-c2ccccc2)nc1-c1ccc2c(c1)OCO2 |  | 0.842 |
| O=C(CCCc1ccccc1)Nc1cccc(N2CCC(N3CCC(Oc4cccnc4)CC3)CC2)c1 | 0.541 |  |
| CC(C)CN(C)c1ccc(C(=O)N2CCCN(c3ncccn3)CC2)cn1 | 0.717 |  |
| O=C(CCc1c[nH]c2ccccc12)N1CCOc2ccc(CN3CCN(c4ccccn4)CC3)cc2C1 | 0.801 |  |
| CCOC(=O)C1(Cc2ccccc2)CCN(Cc2cccc(OC)c2OC)CC1 |  | 0.803 |
| Cc1ccc(OCc2cc(C(=O)NC(C)Cn3nc(C)cc3C)no2)cn1 (configuration not stated) |  | 0.933 |
| CN1CCCC2(CCN(C(=O)CCn3cnc4ccccc43)C2)C1=O (configuration not stated) |  | 0.769 |
| COc1ccc(CCN(C)C2CCCN(C(=O)c3cc(CC(C)C)n[nH]3)C2)cc1OC (configuration not stated) |  | 0.862 |
| COc1ccc(F)c(CN2CCCC3(CCN(C(=O)c4ccccc4)C3)C2=O)c1 (configuration not stated) |  | 0.903 |

Reformatted: entries from further up.
Compound	bacterial growth OD600 (polymyxin B 0.75 µg/mL)	bacterial growth OD600 (polymyxin B 1 µg/mL)
O=C(NCc1cccnc1)c1ccc(N2CCC(NCc3cccc(C(F)(F)F)c3)CC2)cc1	0.795	
COCCN1CC(C(=O)NCCc2nc(C)cc(C(F)(F)F)n2)CCC1=O (configuration not stated)		0.838
O=C(NCC1CCCN(Cc2ccccc2)C1)c1cccs1 (configuration not stated)		0.886
O=C(c1cccc(Cn2cccn2)c1)N1CCCC(Nc2ccc(F)cc2)C1 (configuration not stated)		1.03
Cc1ccc(CN2CCN(Cc3ccc(F)cc3)CC2CCO)cc1 (configuration not stated)		0.755
CN(CC1CCCN(CCc2ccc(Cl)cc2)C1)C(=O)c1cc(C2CC2)on1 (configuration not stated)		0.857
COc1cccc(CCC2CCCN(C(=O)CCSC)C2)c1 (configuration not stated)	0.008	
COc1cccc(NC(=O)CCC2CCN(C(=O)C3=C(C)OCCO3)CC2)c1		1.23
Cc1ccc(Oc2ncccc2CNCc2cccn2-c2ncccn2)cn1		1.12
